The other results are listed elsewhere or left out. The data scatter; read single values as rough.
Legend:
[1] = compound: ClCC(=O)N[C@@H]1CCCc2ccccc12; assay: log2 mean competition ratio of IA-DTB cysteine labelling (DMSO/compound) (log2 ratio); higher = stronger cysteine engagement by compound; conditions: treatment time: 4 h, cell line lysate: HEK293T
Method: (§1)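 IA-DTB competitive cysteine chemoproteomics in HEK293T RIPA lysate. Lysates were treated with compound 29 or 30 at 50 or 200 µM for 4 h, then IA-DTB (500 µM, 1 h), trypsin-digested, NeutrAvidin-enriched and analysed by diaPASEF. Competition ratio = intensity DMSO / intensity compound (n=4 treated, n=64 DMSO); binding: mean log2 CR ≥ 1 and p ≤ 0.05 plus QC filters. Target is the cysteine site.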

By UniProt entry, the sequences of proteins in these tests, tags left out. Where a name states a change or a piece, a line headed by the entry shows the natural chain unless it says otherwise. Residues count along the entry.
UniProt Q8IWV7: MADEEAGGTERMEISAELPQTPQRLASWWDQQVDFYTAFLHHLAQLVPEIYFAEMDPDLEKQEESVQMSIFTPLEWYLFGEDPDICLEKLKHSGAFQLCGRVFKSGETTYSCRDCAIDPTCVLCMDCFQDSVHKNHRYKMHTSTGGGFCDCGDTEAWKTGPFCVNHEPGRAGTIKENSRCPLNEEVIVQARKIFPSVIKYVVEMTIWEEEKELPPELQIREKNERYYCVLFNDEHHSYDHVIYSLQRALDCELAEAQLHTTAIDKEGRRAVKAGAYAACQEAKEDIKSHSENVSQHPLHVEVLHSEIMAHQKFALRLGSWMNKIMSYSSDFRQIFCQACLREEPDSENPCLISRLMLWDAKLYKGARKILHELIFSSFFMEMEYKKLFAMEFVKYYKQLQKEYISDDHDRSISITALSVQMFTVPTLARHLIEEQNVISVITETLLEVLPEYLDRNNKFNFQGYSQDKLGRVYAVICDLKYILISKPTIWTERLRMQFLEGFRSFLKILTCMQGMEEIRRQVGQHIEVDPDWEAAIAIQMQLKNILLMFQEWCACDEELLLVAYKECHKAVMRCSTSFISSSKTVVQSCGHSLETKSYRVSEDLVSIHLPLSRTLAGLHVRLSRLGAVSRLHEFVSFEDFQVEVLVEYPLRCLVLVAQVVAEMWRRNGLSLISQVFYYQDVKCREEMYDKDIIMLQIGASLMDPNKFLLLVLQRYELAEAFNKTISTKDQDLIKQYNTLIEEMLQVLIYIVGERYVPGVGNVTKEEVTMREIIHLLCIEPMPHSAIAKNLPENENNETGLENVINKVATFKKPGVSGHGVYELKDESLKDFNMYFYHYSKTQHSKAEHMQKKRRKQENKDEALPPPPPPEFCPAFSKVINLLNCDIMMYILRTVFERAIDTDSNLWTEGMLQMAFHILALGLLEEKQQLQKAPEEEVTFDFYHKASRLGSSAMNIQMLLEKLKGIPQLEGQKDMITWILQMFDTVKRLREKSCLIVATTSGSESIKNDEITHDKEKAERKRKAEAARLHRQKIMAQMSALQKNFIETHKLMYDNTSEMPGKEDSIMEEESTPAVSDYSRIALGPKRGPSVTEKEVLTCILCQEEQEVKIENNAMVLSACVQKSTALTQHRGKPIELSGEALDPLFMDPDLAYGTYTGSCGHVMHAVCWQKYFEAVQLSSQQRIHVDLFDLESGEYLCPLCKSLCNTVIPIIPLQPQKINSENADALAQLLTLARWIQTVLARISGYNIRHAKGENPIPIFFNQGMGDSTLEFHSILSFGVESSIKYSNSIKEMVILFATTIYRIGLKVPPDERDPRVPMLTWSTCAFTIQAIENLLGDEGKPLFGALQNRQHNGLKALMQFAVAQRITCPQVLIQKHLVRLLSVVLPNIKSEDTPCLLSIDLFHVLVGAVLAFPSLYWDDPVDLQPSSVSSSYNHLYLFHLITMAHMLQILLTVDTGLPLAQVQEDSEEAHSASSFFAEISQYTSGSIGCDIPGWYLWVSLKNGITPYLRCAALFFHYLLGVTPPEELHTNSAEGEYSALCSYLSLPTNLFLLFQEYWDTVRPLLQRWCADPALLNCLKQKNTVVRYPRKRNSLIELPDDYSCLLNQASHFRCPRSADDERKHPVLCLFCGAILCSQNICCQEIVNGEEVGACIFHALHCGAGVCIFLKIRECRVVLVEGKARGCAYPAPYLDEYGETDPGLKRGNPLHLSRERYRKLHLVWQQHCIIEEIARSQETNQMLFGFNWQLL
UniProt Q8IWV8: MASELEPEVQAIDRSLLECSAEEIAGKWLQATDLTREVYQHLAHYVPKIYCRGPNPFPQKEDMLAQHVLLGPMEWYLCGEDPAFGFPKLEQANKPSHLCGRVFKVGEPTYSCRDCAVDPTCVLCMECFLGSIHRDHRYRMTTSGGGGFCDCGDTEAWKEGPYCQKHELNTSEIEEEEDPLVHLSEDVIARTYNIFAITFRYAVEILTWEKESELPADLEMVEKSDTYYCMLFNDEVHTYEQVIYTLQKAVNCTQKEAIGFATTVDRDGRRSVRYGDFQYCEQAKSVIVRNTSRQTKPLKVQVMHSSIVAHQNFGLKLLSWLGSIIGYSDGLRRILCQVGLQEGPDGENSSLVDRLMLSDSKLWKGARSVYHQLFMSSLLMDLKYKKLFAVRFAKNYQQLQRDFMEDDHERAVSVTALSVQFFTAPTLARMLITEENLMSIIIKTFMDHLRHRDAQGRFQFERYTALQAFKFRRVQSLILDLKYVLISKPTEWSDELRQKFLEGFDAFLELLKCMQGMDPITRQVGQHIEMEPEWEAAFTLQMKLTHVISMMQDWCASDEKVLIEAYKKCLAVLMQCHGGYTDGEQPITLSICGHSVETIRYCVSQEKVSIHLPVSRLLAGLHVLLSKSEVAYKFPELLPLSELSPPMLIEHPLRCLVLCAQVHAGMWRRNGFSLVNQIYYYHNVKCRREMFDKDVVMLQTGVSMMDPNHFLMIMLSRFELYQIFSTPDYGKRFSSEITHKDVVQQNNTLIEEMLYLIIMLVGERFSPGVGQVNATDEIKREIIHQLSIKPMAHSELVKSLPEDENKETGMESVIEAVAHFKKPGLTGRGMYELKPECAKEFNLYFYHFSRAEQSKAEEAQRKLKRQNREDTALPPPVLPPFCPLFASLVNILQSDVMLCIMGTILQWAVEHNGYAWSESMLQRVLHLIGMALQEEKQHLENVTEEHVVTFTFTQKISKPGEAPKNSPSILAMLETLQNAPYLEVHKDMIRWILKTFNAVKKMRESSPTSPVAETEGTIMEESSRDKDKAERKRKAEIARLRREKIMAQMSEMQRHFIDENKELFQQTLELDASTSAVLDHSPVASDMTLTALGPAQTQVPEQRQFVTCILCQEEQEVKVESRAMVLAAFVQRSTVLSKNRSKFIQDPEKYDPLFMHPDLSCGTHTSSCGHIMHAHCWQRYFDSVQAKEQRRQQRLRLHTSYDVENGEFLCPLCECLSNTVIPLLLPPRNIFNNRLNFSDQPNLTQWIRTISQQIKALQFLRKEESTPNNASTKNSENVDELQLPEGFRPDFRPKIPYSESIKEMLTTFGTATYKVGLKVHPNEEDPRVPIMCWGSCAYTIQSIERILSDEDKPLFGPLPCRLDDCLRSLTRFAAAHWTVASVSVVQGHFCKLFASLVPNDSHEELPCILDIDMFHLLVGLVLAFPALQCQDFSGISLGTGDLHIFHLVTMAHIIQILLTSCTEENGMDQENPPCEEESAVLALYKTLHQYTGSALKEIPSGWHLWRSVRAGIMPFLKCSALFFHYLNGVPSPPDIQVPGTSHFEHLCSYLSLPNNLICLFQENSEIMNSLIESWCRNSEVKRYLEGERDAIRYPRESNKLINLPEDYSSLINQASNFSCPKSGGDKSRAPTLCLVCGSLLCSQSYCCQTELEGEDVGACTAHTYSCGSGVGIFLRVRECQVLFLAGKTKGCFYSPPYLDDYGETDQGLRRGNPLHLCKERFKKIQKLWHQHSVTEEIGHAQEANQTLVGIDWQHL
UniProt Q5T4S7, 3380-3401: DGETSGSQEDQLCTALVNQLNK
UniProt Q5TAX3: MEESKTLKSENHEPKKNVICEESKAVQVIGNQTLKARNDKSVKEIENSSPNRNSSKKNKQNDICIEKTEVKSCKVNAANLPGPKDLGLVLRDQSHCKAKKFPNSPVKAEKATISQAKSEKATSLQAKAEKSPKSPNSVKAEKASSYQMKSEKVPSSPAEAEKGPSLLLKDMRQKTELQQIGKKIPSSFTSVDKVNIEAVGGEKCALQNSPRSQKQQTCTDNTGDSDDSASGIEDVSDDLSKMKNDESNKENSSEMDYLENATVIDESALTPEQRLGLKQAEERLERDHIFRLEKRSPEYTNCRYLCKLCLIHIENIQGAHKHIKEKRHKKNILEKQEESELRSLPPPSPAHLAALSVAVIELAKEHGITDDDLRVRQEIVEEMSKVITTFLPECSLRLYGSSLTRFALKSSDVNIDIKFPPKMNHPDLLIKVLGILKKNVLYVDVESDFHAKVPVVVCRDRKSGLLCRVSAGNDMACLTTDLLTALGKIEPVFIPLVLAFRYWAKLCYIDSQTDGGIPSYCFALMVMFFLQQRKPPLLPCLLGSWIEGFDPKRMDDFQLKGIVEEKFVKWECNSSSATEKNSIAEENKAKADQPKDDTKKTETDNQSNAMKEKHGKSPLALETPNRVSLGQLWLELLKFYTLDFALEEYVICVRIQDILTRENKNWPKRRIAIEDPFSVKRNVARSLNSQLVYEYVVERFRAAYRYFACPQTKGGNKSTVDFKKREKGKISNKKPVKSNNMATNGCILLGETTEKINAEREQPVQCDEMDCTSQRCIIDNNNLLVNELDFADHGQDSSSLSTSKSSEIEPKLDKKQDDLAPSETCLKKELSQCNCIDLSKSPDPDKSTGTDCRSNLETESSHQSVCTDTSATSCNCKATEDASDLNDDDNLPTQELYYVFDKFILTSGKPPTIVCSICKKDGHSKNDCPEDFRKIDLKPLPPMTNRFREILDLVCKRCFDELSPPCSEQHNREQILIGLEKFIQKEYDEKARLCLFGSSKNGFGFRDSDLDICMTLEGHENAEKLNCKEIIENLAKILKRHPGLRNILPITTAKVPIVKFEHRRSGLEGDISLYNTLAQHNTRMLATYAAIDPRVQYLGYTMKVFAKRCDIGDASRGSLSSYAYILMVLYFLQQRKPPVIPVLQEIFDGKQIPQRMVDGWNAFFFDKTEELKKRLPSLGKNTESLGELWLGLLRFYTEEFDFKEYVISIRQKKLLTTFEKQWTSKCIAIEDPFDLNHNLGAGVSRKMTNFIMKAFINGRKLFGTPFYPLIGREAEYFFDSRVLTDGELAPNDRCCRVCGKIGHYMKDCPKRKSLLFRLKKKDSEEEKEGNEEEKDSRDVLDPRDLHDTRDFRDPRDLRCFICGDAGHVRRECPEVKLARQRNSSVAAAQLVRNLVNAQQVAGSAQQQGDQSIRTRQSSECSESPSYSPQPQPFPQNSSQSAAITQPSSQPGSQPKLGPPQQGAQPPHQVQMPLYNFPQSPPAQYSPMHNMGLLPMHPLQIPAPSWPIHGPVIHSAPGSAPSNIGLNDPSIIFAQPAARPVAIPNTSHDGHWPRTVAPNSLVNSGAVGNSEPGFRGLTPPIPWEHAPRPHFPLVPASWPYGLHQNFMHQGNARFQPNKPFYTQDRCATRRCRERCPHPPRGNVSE
UniProt Q99614: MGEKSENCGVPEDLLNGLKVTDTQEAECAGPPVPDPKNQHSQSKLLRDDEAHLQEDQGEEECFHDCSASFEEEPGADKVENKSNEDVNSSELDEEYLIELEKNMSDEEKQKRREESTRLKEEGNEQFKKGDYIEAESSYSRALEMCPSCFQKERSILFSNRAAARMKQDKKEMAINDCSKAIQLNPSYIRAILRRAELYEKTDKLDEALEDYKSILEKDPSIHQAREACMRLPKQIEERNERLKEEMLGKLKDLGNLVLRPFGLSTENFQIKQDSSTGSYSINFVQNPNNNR
UniProt Q969E8: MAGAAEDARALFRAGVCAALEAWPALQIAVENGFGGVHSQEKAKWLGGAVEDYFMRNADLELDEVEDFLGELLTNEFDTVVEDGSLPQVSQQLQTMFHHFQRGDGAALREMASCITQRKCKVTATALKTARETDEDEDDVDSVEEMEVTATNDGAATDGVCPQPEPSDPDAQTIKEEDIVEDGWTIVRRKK
UniProt Q9BZL1: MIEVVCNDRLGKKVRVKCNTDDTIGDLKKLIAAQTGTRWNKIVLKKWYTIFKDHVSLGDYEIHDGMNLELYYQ
UniProt Q9H3M7: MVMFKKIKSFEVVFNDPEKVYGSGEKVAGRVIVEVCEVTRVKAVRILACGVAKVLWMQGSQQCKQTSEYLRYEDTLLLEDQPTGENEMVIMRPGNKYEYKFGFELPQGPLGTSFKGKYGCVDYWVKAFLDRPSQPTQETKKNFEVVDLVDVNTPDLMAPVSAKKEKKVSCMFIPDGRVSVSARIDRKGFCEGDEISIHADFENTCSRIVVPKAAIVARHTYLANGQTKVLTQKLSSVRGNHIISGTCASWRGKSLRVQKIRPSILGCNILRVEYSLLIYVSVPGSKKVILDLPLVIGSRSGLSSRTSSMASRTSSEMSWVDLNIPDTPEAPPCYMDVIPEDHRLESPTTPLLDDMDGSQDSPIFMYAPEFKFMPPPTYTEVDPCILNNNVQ
UniProt Q9H0U9: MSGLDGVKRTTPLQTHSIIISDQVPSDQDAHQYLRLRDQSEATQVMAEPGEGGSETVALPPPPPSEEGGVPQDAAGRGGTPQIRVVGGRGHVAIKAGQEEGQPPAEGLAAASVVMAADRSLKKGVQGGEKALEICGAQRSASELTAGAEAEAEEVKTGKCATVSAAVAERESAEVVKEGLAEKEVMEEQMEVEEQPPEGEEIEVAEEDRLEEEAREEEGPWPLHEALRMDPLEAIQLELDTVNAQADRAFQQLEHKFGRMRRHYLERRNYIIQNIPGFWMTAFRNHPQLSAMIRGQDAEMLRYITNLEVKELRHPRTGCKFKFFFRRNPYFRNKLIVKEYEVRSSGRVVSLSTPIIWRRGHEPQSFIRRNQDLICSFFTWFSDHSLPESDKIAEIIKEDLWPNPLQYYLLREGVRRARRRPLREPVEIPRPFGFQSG

[2] = compound: ClCC(=O)N[C@H]1CCCc2ccccc12; assay: as above; conditions: treatment time: 4 h, cell line lysate: HEK293T
Method: as §1

Target	log2 mean competition ratio ([1]; 50 µM)	log2 mean competition ratio ([1]; 200 µM)	log2 mean competition ratio ([2]; 50 µM)	log2 mean competition ratio ([2]; 200 µM)
TRRAP C3849 (UniProt Q9Y4A5)	-0.237	0.311	0.106	0.0681
TUT7 C911 (UniProt Q5VYS8)	0.167	-0.147	-0.0727	-0.35
UBR1 C279 (UniProt Q8IWV7)	-0.0275	-0.0616	-0.249	-0.196
UBE2M C65	-0.204	-0.352	-0.67	-0.302
TSC22D2 C63 (UniProt O75157)	-0.165	0.27	-0.178	0.334
TTC39A C92	-0.212	-0.0143	0.21	0.221
U2SURP C65 (UniProt O15042)	0.31	0.113	-0.25	-0.00553
UBQLN4 C29 (UniProt Q9NRR5)	-0.233	0.194	0.259	0.305
TTF1 C73 (UniProt Q15361)	0.305	0.0327	0.159	-0.15
UBN2 C614 (UniProt Q6ZU65)	0.238	0.279	-0.0222	0.0356
TTLL12 C528	-0.585	-0.31	-0.284	-0.2
UBR2 C602 (UniProt Q8IWV8)	0.0707	-0.191	0.159	-0.166
UBR4 C3392 (UniProt Q5T4S7)	-0.461	-0.0585	-0.0996	-0.0544
UBR2 C1717 (UniProt Q8IWV8)	0.284	0.236	0.25	0.262
UACA C980 (UniProt Q9BZF9)	-0.422	-0.033	-0.118	0.0714
TUT4 C709 (UniProt Q5TAX3)	-0.0889	-0.148	0.325	-0.0363
UBR4 C1970 (UniProt Q5T4S7)	-0.00945	-0.398	-0.314	-0.378
TUT7 C690 (UniProt Q5VYS8)	0.117	0.0545	-0.062	0.272
TTC37 C329 (UniProt Q6PGP7)	0.113	0.071	0.204	0.0338
TRMT2A C191 (UniProt Q8IZ69)	0.102	0.372	0.447	0.23
TSEN34 C291 (UniProt Q9BSV6)	-0.0777	-0.131	0.0835	0.0218
TUT4 C852 (UniProt Q5TAX3)	-0.23	0.615	-0.235	0.302

Pulled one by one from the entries so far:
Target	log2 mean competition ratio ([1]; 50 µM)	log2 mean competition ratio ([1]; 200 µM)	log2 mean competition ratio ([2]; 50 µM)	log2 mean competition ratio ([2]; 200 µM)
TTC39A C92	-0.212	-0.0143	0.21	0.221
TTF1 C73 (UniProt Q15361)	0.305	0.0327	0.159	-0.15

The results go on:

Target	log2 mean competition ratio ([1]; 50 µM)	log2 mean competition ratio ([1]; 200 µM)	log2 mean competition ratio ([2]; 50 µM)	log2 mean competition ratio ([2]; 200 µM)
TRMT10C C123 (UniProt Q7L0Y3)	-0.0845	-0.175	-0.423	-0.142
TUT4 C64 (UniProt Q5TAX3)	-0.178	0.09	0.0545	0.247
TSPAN14 C200 (UniProt Q8NG11)	0.0941	0.11	-0.38	-0.0185
TXLNG C480 (UniProt Q9NUQ3)	0.0654	-0.244	0.438	-0.165
TTC1 C178 (UniProt Q99614)	-0.183	-0.0199	0.18	-0.0731
TSR2 C114 (UniProt Q969E8)	-0.153	0.014	0.48	0.181
UBR2 C19 (UniProt Q8IWV8)	-0.212	0.00709	-0.68	-0.179
UBE3C C395 (UniProt Q15386)	-0.136	0.0109	-0.427	-0.0597
UBL5 C18 (UniProt Q9BZL1)	-0.171	0.0352	-0.42	0.00245
UBR1 C180 (UniProt Q8IWV7)	-0.362	0.278	-0.321	0.157
UBR1 C589 (UniProt Q8IWV7)	-0.0924	-0.322	-0.0358	-0.354
U2SURP C918 (UniProt O15042)	-0.152	0.165	-0.184	-0.161
TXLNG C127 (UniProt Q9NUQ3)	0.177	0.111	-0.0416	0.23
TTLL12 C612	0.224	-0.278	0.942	-0.186
TSFM C240 (UniProt P43897)	0.249	-0.132	0.285	-0.19
UBE4B C113 (UniProt O95155)	-0.178	-0.0861	-0.263	0.0766
UBE2O C314	0.196	-0.0978	0.781	-0.00736
TXNIP C49 (UniProt Q9H3M7)	0.0492	-0.122	0.511	-0.0179
TTC31 C197	-0.245	-0.365	-0.677	0.152
TUBD1 C46 (UniProt Q9UJT1)	-0.122	0.0344	-0.0324	0.11
TSPYL1 C160 (UniProt Q9H0U9)	0.0264	-0.0236	0.044	-0.0846

— the supplement of paper PMC11732987, “Enantioselective OTUD7B fragment discovery through chemoproteomics screening and high-throughput optimisation” (Communications Chemistry, 2025)
